# Results reported in PubChem BioAssay AID540303 (National Center for Advancing Translational Sciences (NCATS), 2011).
# In all, about 330,000 compounds went through this assay and about 1,000 (0.3%) were called active. The inconclusive results got no clear call from the source; some entries with a clear call stand among them for comparison. Calls come from the whole dose curve; as a rule, active = well fitted inhibition curve with a large enough effect; inconclusive = small, poorly fitted or top-dose-only effect; inactive = no such curve, though single readings can be large or run the other way; tested in mouse RAW 264.7 cells. Potencies beside an inconclusive call are fits to weak or partial responses and may not hold up.
# Assay: qHTS for Inhibitors of Cell Surface uPA Generation; note: nearly all actives have a fitted effect of over 55% in size
# Conditions: cell surface uPA generation assay; series mostly up to 38.3 µM; activity change, negative = inhibition: at the top concentration
# In short: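 Using RAW 264.7 macrophages, the screen measures whether compounds keep cellular ATP up by preventing uPA-driven LF translocation. Treatment lasted 24 h at 37 C, with a final top concentration of 38.3 uM, and luminescence was the readout.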
# % is set by controls: 0 for no effect and ±100 for the full control effect; potency is the fitted concentration of half-maximal effect.
Structure (SMILES),"activity change, negative = inhibition",Potency
CCOC(=O)c1oc2ccc(S(=O)(=O)n3nc(-c4ccc(C)cc4)cc3N)cc2c1C,inactive: -7.22%,
COc1cc(O)c2c(=O)c3c(O)c(O)ccc3oc2c1OC,,"inconclusive: 10 µM [inhibitor, partial curve, poor fit]"
Cc1ccccc1OCCn1cc(C(=S)N2CCN(C)CC2)c2ccccc21,,"inconclusive: 4.47 µM [inhibitor, partial curve, poor fit]"
CN(c1ccccc1)S(=O)(=O)c1ccc(NC(=O)c2nc(S(C)(=O)=O)ncc2Cl)cc1,,"inconclusive: 2.24 µM [inhibitor, full curve, poor fit]"
CCOC(=O)c1cc2c(s1)-c1c(C)cccc1OC2,inactive: 2.75%,
CC(C)=CCCC(C)CN1CCC(N2CCC(C(=O)NC(C)C)CC2)CC1 (configuration not stated),,"inconclusive: 7.94 µM [inhibitor, single point]"
CN1CCN(C(=S)c2cn(Cc3ccc(Br)cc3)c3ccccc23)CC1,,"inconclusive: 14.1 µM [inhibitor, single point]"
CCC(CNc1cc(OC)cc2cccnc12)NC1CCCCC1 (configuration not stated),inactive: 11%,
O=C1N/C(=C/c2ccsc2)C(=O)N1c1ccccc1,,"inconclusive: 0.0141 µM [inhibitor, full curve, poor fit]"
Cc1ccccc1COC(=O)c1cc([N+](=O)[O-])ccc1N1CCOCC1,,"inconclusive: 15.8 µM [inhibitor, partial curve, poor fit]"
CSCCC(NC(=O)/C(=C/c1ccco1)NC(=O)c1ccco1)C(=O)O (configuration not stated),inactive: 3.73%,
O=C(O)C1C2CCC(O2)C1C(=O)Nc1ccc(Br)cc1F (configuration not stated),,"inconclusive: 11.2 µM [inhibitor, single point]"
CC(C)Cn1c(N)c(C(=O)COC(=O)/C=C/c2ccccc2)c(=O)n(C)c1=O,inactive: -2.67%,
CC(=O)N(c1ccccc1C)S(=O)(=O)c1ccc(Cl)cc1,,"inconclusive: 2.24 µM [inhibitor, full curve, poor fit]"
CC(C)(CNC(=O)CCNC(=O)c1ccc(Br)cc1)N1CCOCC1,inactive: 14.6%,
CC1(C)CC(=O)C(C=Nc2ccc(C(=O)c3ccccc3)cc2N=CC2=C(O)CC(C)(C)CC2=O)=C(O)C1,inactive: -0.392%,
CC(Sc1nc2ccccc2s1)C(=O)N(C)Cc1ccccc1 (configuration not stated),,"inconclusive: 3.16 µM [inhibitor, partial curve]"
O=C(CSc1nnc(Cc2ccccc2)n1Cc1ccco1)NC12CC3CC(CC(C3)C1)C2,,"inconclusive: 2.82 µM [inhibitor, partial curve, poor fit]"
Cc1ccc(C(=O)N/N=C/c2cc(Br)ccc2O)cn1,,"inconclusive: 10 µM [inhibitor, partial curve, poor fit]"
COc1ccc(/C=N/Nc2cc(C)nc3c(C)cccc23)cc1,,"inconclusive: 3.98 µM [inhibitor, partial curve, poor fit]"
O=C(CCN1C(=O)/C(=C\c2ccc(F)cc2)SC1=S)Nc1ccccc1,inactive: -5.83%,
O=C(CN1C2=NCCCN2c2ccccc21)c1ccc([N+](=O)[O-])cc1,,"inconclusive: 8.91 µM [inhibitor, single point]"
CCN(CC)S(=O)(=O)c1cccc(NC(=O)CNC2CCCCCC2)c1,,"inconclusive: 4.47 µM [inhibitor, partial curve]"

# Sorted by heavy-atom count (low to high): some entries from above.
Structure (SMILES),"activity change, negative = inhibition",Potency
O=C(O)C1C2CCC(O2)C1C(=O)Nc1ccc(Br)cc1F (configuration not stated),,"inconclusive: 11.2 µM [inhibitor, single point]"
CCC(CNc1cc(OC)cc2cccnc12)NC1CCCCC1 (configuration not stated),inactive: 11%,
CSCCC(NC(=O)/C(=C/c1ccco1)NC(=O)c1ccco1)C(=O)O (configuration not stated),inactive: 3.73%,
CC(C)Cn1c(N)c(C(=O)COC(=O)/C=C/c2ccccc2)c(=O)n(C)c1=O,inactive: -2.67%,
O=C(CSc1nnc(Cc2ccccc2)n1Cc1ccco1)NC12CC3CC(CC(C3)C1)C2,,"inconclusive: 2.82 µM [inhibitor, partial curve, poor fit]"

# (list continues)

Structure (SMILES),"activity change, negative = inhibition",Potency
CCOc1ccc(N(CC(=O)Nc2ccccc2OC)S(C)(=O)=O)cc1,,"inconclusive: 7.08 µM [inhibitor, partial curve]"
CC(=O)N1CCC(=NNC(=O)CSc2cc(C)c(Br)cc2C)CC1,inactive: -3.32%,
NNC(=O)/C(=C\c1ccc(Br)cc1)NC(=O)c1cccs1,inactive: 0.836%,
COc1ccccc1/C=C1\SC(=O)N(CCC(=O)N(C)C2CCS(=O)(=O)C2)C1=O (configuration not stated),,"inconclusive: 5.01 µM [inhibitor, partial curve, poor fit]"
O=C(/C=C/c1ccccc1)Nc1cccnc1,,"inconclusive: 7.94 µM [inhibitor, partial curve]"
C=CCOc1c(Br)cc(/C=C2\SC(=Nc3ccccc3)NC2=O)cc1OC,,"inconclusive: 11.2 µM [inhibitor, single point]"
O=C1N=C(N2CCN(c3ccccc3)CC2)S/C1=C/c1cccs1,inactive: 3.22%,
O=C(Nc1cc([N+](=O)[O-])c2[nH]c(=O)c3ccccc3c2c1)C(F)(F)F,inactive: -7.77%,
COc1cc(OC)cc(-c2cc3cc(F)ccc3cn2)c1,,"inconclusive: 10 µM [inhibitor, partial curve, poor fit]"
Nc1c(C(=O)Nc2ccc(S(=O)(=O)N3CCCC3)cc2)sc2nc3cc4c(cc3cc12)CCC4,inactive: -13.6%,
Cc1ccnc(NC2c3ccccc3C(=O)N2Cc2ccccc2Cl)c1 (configuration not stated),,"inconclusive: 7.94 µM [inhibitor, single point]"
COc1ccc2ccc(O)c(CN3CCN(S(=O)(=O)c4cccc(C(F)(F)F)c4)CC3)c2c1,,"inconclusive: 3.98 µM [inhibitor, partial curve, poor fit]"
CC(Oc1ccc(Cl)cc1)C(=O)Nc1sccc1C(N)=O (configuration not stated),inactive: -4.81%,
CCCSc1nnc(NC(=O)CSc2nc3[nH]c(=O)cc(O)c3s2)s1,,"inconclusive: 2.82 µM [inhibitor, single point]"
CN(C(=O)c1ccc(NC(=O)Cc2ccc(NC(=O)C3CCCN(C(=O)CCc4ccccc4)C3)cc2)cc1)C1CCCC1 (configuration not stated),,"inconclusive: 17.8 µM [inhibitor, single point]"
O=Cc1cc(N=Nc2ccccc2Cl)ccc1O,,active: 8.91 µM
Cc1nc2ccccc2c2c1CC(C(C)(Cl)Br)O2 (configuration not stated),,"inconclusive: 3.98 µM [inhibitor, partial curve, poor fit]"
CC(=O)N1CCN(C(=O)CCCNC(=O)c2ccc(Cl)cc2)CC1,,"inconclusive: 25.1 µM [inhibitor, partial curve, poor fit]"
CC(=O)NC(CSC(CC(=O)c1ccco1)c1ccc(C)cc1)C(=O)O (configuration not stated),,"inconclusive: 7.94 µM [inhibitor, single point]"
COc1ccccc1N(C)S(=O)(=O)c1ccc(C(=O)N2CCC2)cc1,,"inconclusive: 7.08 µM [inhibitor, single point]"
C=C1CCC[C@]2(C)C[C@H]3OC(=O)C(CN(Cc4ccc(OC)c(OC)c4)CC(C)O)[C@H]3CC12 (some centres not stated),,"inconclusive: 7.94 µM [inhibitor, partial curve, poor fit]"
COc1cc(-c2noc(CCC(=O)Nc3cccnc3)n2)cc(OC)c1OC,inactive: 1.35%,
Cc1ccc(S(=O)(=O)N2CCN(C(=O)COC(=O)c3cc([N+](=O)[O-])ccc3NCCO)CC2)c(C)c1,,"inconclusive: 11.2 µM [inhibitor, partial curve, poor fit]"

Structure (SMILES),"activity change, negative = inhibition",Potency
CCc1cc2c(Sc3nc4ccccc4s3)ncnc2s1,,"inconclusive: 2.24 µM [inhibitor, partial curve, poor fit]"
COc1ccc([C@@H]2C[C@H](c3ccccc3)Oc3cc(C)cc(C)c32)cc1,inactive: -3.27%,
O=C(NCC1CCCCC1)C1(CC2CC(c3ccc(Cl)cc3)=NO2)CCNCC1 (configuration not stated),,"inconclusive: 6.31 µM [inhibitor, single point]"
CC(C)Sc1nc2c([nH]1)c(=N)ncn2Cc1ccccc1,,"inconclusive: 12.6 µM [inhibitor, single point]"
COc1ccc(Cn2cc(CN3CCS(=O)(=O)N(Cc4ccc(-c5cccc(Cl)c5)cc4)C(C)C3=O)nn2)cc1 (configuration not stated),,"inconclusive: 20 µM [inhibitor, single point]"
CN(C)c1c([N+](=O)[O-])cc(N2C(=O)C=CC2=O)cc1[N+](=O)[O-],inactive: 1.89%,
CCOC1(OCC)C(c2ccc(Cl)cc2)C(C#N)(C#N)C1(OCC)OCC (configuration not stated),inactive: -10.2%,
CCCOc1ccc(CNC(=O)C2CCN(c3nn4c(=O)cc(C)nc4s3)CC2)cc1,,"inconclusive: 7.08 µM [inhibitor, partial curve, poor fit]"
CCc1[nH]nc2c1C(C1C=CCCC1)C(C#N)=C(N)O2 (configuration not stated),,"inconclusive: 6.31 µM [inhibitor, partial curve, poor fit]"
Cc1ccc(C(=O)N/N=C2\SCC(=O)N2c2cc(C)ccc2C)cc1,inactive: -8.98%,
CCOC(=O)N1C2=NC(C(=O)OC)=C(C(=O)OC)[C@@H]3N(C)c4ccccc4[C@]23C[C@H]1C(=O)OC,,"inconclusive: 2.24 µM [inhibitor, partial curve]"
COc1ccc(C)cc1S(=O)(=O)N1CCN(C)CC1c1ccccc1 (configuration not stated),,"inconclusive: 3.16 µM [inhibitor, partial curve, poor fit]"
Cc1ccc(-c2nn(-c3ccccc3)cc2/C=N/n2c(-c3cccs3)n[nH]c2=S)cc1,inactive: 8.7%,
Cc1oncc1C(=O)Nc1ccc(C(F)(F)F)cc1,,"inconclusive: 8.91 µM [inhibitor, partial curve, poor fit]"
O=C(NCc1cccnc1)C1CC(c2ccc(Cl)c(Cl)c2)=NO1 (configuration not stated),,"inconclusive: 14.1 µM [inhibitor, single point]"
COc1cccc(CN(C)Cc2nc(Cc3ccccc3Cl)no2)c1,inactive: 0.4%,
COC(=O)CC1COc2ccccc2N1S(=O)(=O)c1ccc(Br)cc1 (configuration not stated),,"inconclusive: 12.6 µM [inhibitor, single point]"
O=C(NCC(=O)N1CCN(c2ccccc2O)CC1)c1ccco1,inactive: 0.976%,
CCOc1ccc(S(=O)(=O)N(CC(=O)NN=C2CCN(C)CC2)c2ccc(C)cc2)cc1,,"inconclusive: 7.08 µM [inhibitor, single point]"
O=C1CCCC(O)=C1N=Nc1c(Cl)cc(Cl)cc1Cl,inactive: 2.94%,
Cc1ccc(CNC(=O)CS(=O)Cc2nc(-c3cccs3)oc2C)cc1 (configuration not stated),,"inconclusive: 11.2 µM [inhibitor, partial curve, poor fit]"
